# Source: US20100316634A1 (published 2010)
# Where a chain is given by its changes, count along the chain named. These are yes or no findings as the source states them, for the method shown.
# B1: murine monoclonal antibody 2E3 (antibody, V domains shown)
# VH: PGLVAPSQSLSITCTVSGFSLTSYSVHWVRQPPGKGLEWLGVIWASGGTDYNSALMSRLSISKDNSKSQVFLKLNSLQTDDAAMYYCARDPPFSLLRLDFWGQGTTLTVSS
# VL: SSLSVSAGEKVTMSCKSSQSLLNSGNQKNYLAWYQQKPGQPPKLLIYGASTRESGVPDRFTGSGSGTDFTLTISSVQAEDLAVYYCQNDHSFPFTFGSGTELEIK
# B2: murine monoclonal antibody 2F2 (antibody, V domains shown)
# VH: B1 VH with Q78R, A82T, F93S, F100Y
# VL: B1 VL
# B3: murine monoclonal antibody 2B6 (antibody, V domains shown)
# VH: QVQLKESGPGLVAPSQSLSITCTVSGFSLTSYSVHWVRQPPGKGLEWLGVIWASGGTDYNSALMSRLSISKDNSKSQVFLKLNSLQTDDTAMYYCARDPPSSLLRLDYWGQGTTLTVSS
# VL: DIVMTQSPSSLSVSAGEKVTMSCKSSQSLLNSGNQKNYLAWYQQKPGQPPKLLIYGASTRESGVPDRFTGSGSGTDFTLSISSVQAEDLAVYYCQNVHSFPFTFGSGTELEIK
# Target: human TGF (Greek letter lost) (human)
# Assay: ELISA, supernatants of the cloned lines
row,binding,Binder
1,no binding,B1
2,no binding,B2
3,no binding,B3
